Measured values reported in PubChem BioAssay AID485353 (National Center for Advancing Translational Sciences (NCATS), 2010).
About 610 (0.18%) of roughly 330,000 compounds were called active. This list was built around the results that the source calls inconclusive (neither active nor inactive); the mix of calls is not that of the screen. Calls come from the whole dose curve. Potencies of inconclusive entries are doubtful fits and often do not repeat.

Assay: qHTS of Yeast-based Assay for SARS-CoV PLP; note: nearly all actives have a fitted effect of over 55% in size
Conditions: S. cerevisiae expressing SARS-CoV PLpro; Potency: growth rescue; series mostly up to 32.9 µM
Potency is the fitted concentration of half-maximal effect.

SMILES	Potency
O=S(Cc1cc(Oc2ccccc2)nc(-c2ccccc2)n1)c1ccccc1 (stereo unspecified)	inconclusive: 2.82 µM [activator, full curve]
CCOC(=O)/C=c1\sc2n(c1=O)CCN=2	inconclusive: 2.82 µM [activator, single point]
CCc1cccc2c(C(=O)CSc3nncn3-c3ccccc3OC)c[nH]c12	active: 12.6 µM
CCCCC(=O)NS(=O)(=O)c1ccc(N=NN2CCOCC2)cc1	inconclusive: 10 µM [activator, partial curve]
Cc1ccc(-c2csc(NC(=O)CSc3nc(C)cc(=O)[nH]3)n2)cc1	inconclusive: 20 µM [activator, partial curve]
C#CCOCCOCCOCCNc1nc(N2CCN(C(=O)[C@H](CCCCN)n3cc(CN)nn3)CC2)nc(N2CCN(C(=O)[C@H](CC(N)=O)n3cc(C(N)[C@H](C)CC)nn3)CC2)n1 (stereo partly specified)	inactive
O=C(NCCS(=O)(=O)c1ccc(Br)cc1)c1ccccc1	inconclusive: 3.55 µM [activator, single point]
COc1ccc(-c2nnc(SC(C)C(=O)NNC(=O)c3ccc(C)cc3)o2)cc1 (stereo unspecified)	inactive
O=c1[nH]c(=O)n(Cc2ccco2)c2c1C(C(F)(F)F)(C(F)(F)F)N=C(c1ccco1)N2	inconclusive: 3.55 µM [activator, partial curve]
Clc1cnc(N/N=C/c2cccs2)c(Cl)c1	inconclusive: 3.16 µM [activator, single point]
CC(C)CC(=O)NC1(C(F)(F)F)C(=O)Nc2c1c(=O)n(C)c(=O)n2C (stereo unspecified)	inconclusive: 17.8 µM [activator, single point]
Cc1cccc(NC(=S)N2CCC(NC(=O)c3cccc(F)c3)CC2)c1	inactive
O=C(CSc1nc2ccccc2c(=O)n1CCCN1CCOCC1)Nc1ccccc1OC(F)F	active: 2.82 µM
O=C1CSC(c2cccc(F)c2)N1c1ccccc1 (stereo unspecified)	inactive
Cc1cc(C(=O)Nc2sc3c(c2C#N)CCC(C)C3)cs1 (stereo unspecified)	inconclusive: 12.6 µM [activator, single point]
CC(=O)c1ccc(N(C)C)cc1	active: 2.82 µM
O=C(CCC(=O)OCC(=O)c1ccc([N+](=O)[O-])cc1)Nc1ccccc1Cl	inconclusive: 20 µM [activator, single point]
CNC(=O)O/N=C(\N)Cc1csc2ccccc12	inconclusive: 10 µM [activator, single point]
CC(=O)Nc1ccc(S(=O)(=O)NCCc2cn3nc(C)c(C)nc3n2)cc1	inconclusive: 22.4 µM [activator, single point]
Cc1ccc2c(c1)N(CC(=O)NCc1cccnc1)C(=O)CO2	inconclusive: 22.4 µM [activator, partial curve, poor fit]
CCc1cccc(NC(=O)COC(=O)c2cc([N+](=O)[O-])ccc2N2CCOCC2)c1	inactive
O=C(CCNS(=O)(=O)c1ccccc1)OCC(=O)c1ccc(Cl)cc1	inconclusive: 4.47 µM [activator, single point]
CCCOC(=O)Nc1nnc(CCC)s1	inconclusive: 3.98 µM [activator, single point]
CCCC(=O)c1ccc(N2CCN(C(=O)c3ccc(Br)cc3)CC2)c(F)c1	inconclusive: 12.6 µM [activator, partial curve]

No new results follow: an excerpt of the list.
SMILES	Potency
CCOC(=O)/C=c1\sc2n(c1=O)CCN=2	inconclusive: 2.82 µM [activator, single point]
CCc1cccc2c(C(=O)CSc3nncn3-c3ccccc3OC)c[nH]c12	active: 12.6 µM

Remaining list, next part.

SMILES	Potency
CCOc1ccc(CN2CCNC(=O)C2CC(=O)NCC2CCOCC2)cc1 (stereo unspecified)	inconclusive: 11.2 µM [activator, single point]
Clc1ccc(-n2nnnc2-c2cnc(-c3ccccn3)nc2-c2cccs2)cc1	inconclusive: 20 µM [activator, single point]
Nc1cc(Cl)nc(N/N=C/c2c(O)ccc3ccccc23)n1	active: 2.51 µM
COC(=O)c1c(NC(=O)CN2CCOCC2)sc2c1CCC(C)C2 (stereo unspecified)	inconclusive: 12.6 µM [activator, single point]
Cc1cc(C(=O)O)sc1C	inconclusive: 0.398 µM [activator, full curve, poor fit]
Cc1ccccc1CNC(=O)C(=O)NCCC1CCCCN1S(=O)(=O)c1cccs1 (stereo unspecified)	inactive
CCC[C@@H](CN[C@@H](CNC)[C@H](C)CC)NCC1CCC(C(C)(C)C)CC1 (stereo partly specified)	inactive
CCc1nc(SCC(=O)Nc2c(C)nn(C)c2C)c2cnn(-c3ccccc3)c2n1	inactive
Cc1c(N/N=C(\C#N)C(=O)c2ccccc2)c(=O)n(-c2ccccc2)n1C	inconclusive: 20 µM [activator, single point]
O=C(NNC(=O)C12CC3CC(CC(C3)C1)C2)c1cnccn1	inconclusive: 20 µM [activator, single point]
[O-][n+]1c2ccc3nonc3c2nn1-c1ccccc1Cl	inconclusive: 3.98 µM [activator, single point]
CCC(CC)C(=O)Nc1cc(C(=O)OC)cc(C(=O)OC)c1	inconclusive: 2.82 µM [activator, single point]
O=C(N/N=C/c1cccnc1)c1cccc(F)c1	inconclusive: 0.398 µM [activator, partial curve, poor fit]
CCCCNC(=S)NC(=O)c1ccccc1Br	active: 11.2 µM
N/C(=N\O)c1cn(Cc2ccccc2Cl)c2ccccc12	inactive
CCOC(=O)C1CCCN(C(=S)Nc2cccc(Cl)c2C)C1 (stereo unspecified)	inconclusive: 20 µM [activator, single point]
CCN1CCC(C(N)=O)CC1	inconclusive: 22.4 µM [activator, partial curve, poor fit]
CCOC(=O)c1ccc(N(C(=O)CNC(=O)c2ccco2)C(C(=O)NCC2CCCO2)c2ccc(OC)c(OC)c2)cc1 (stereo unspecified)	inactive
O=C(NCc1ccccn1)C(=O)NCC1OCCN1S(=O)(=O)c1ccc(Br)cc1 (stereo unspecified)	inconclusive: 2.51 µM [activator, single point]
O=C(Cn1nnc(-c2ccccc2)n1)N/N=C/c1cc([N+](=O)[O-])c(Cl)cc1Cl	inconclusive: 11.2 µM [activator, partial curve, poor fit]
c1ccc(OCc2noc(CN3CC[C@@H]4CCCC[C@H]4C3)n2)cc1	inactive
Cc1cc(C(=O)NN=C2CCCCC2)c2ccccc2n1	active: 12.6 µM
COc1ccc(NC(=S)NC(NC(=O)C(C)C)C(Cl)(Cl)Cl)c([N+](=O)[O-])c1 (stereo unspecified)	inactive
CC(Cc1cccs1)NCc1ccccc1 (stereo unspecified)	inactive

SMILES	Potency
CCC1CCCCN1CCCNC(=O)CS(=O)(=O)Cc1nc(-c2cccc(OC)c2)oc1C (stereo unspecified)	inconclusive: 3.16 µM [activator, full curve, poor fit]
Cc1ccc(C)c(CSc2nnc(-c3ccccn3)n2N)c1	inactive
Fc1ccc(-c2nnc(CN3CCN(c4ncc(C(F)(F)F)cc4Cl)CC3)o2)cc1	inconclusive: 3.98 µM [activator, single point]
O=C(Oc1cccc2c(OC(=O)N3CCCC3)cccc12)N1CCCC1	inconclusive: 11.2 µM [activator, partial curve]
N#CC1=C(N)OC2=C(CCc3ccccc32)C1c1ccccc1 (stereo unspecified)	inactive
Cc1cccc(N2CCN(CC(=O)Nc3ccc(-n4cnnn4)cc3)CC2)c1C	inconclusive: 10 µM [activator, single point]
COc1ccc2ccc3c(c2c1)N=CC1(O3)N(C)c2ccccc2C1(C)C (stereo unspecified)	inactive
O=C(CCn1c(=O)oc2ccccc21)N1CCN(C(c2ccccc2)c2ccccc2)CC1	inconclusive: 4.47 µM [activator, single point]
Cc1ccc(SC[C@H](c2ccccc2)N2CCN(CC(C)C)CCC2=O)cc1	inactive
C=CCn1c(-c2ccc(OC)c(OC)c2)cs/c1=N\c1ccccn1	inconclusive: 22.4 µM [activator, single point]
CC(C)C(NS(=O)(=O)c1ccccc1)C(=O)N1CCN(C(=O)c2ccco2)CC1 (stereo unspecified)	inconclusive: 11.2 µM [activator, partial curve]
Cc1ccccc1NC(=O)Nc1ccc2c(c1)CCC2	inconclusive: 20 µM [activator, single point]
O=C(Nc1cc(C(F)(F)F)ccc1Cl)C(Sc1cccc[n+]1[O-])c1ccccc1 (stereo unspecified)	inconclusive: 11.2 µM [activator, single point]
Cc1cc(=O)oc2c(CN3CCN(C)CC3)c(O)c(Cl)cc12	inconclusive: 12.6 µM [activator, single point]
Oc1ccc(/C=N/N(c2ccccc2)c2ccccc2)cc1O	inconclusive: 0.447 µM [activator, full curve, poor fit]
COc1ccc(/C=N\NC(=O)c2ccccc2Cl)cc1COc1c(F)c(F)c(F)c(F)c1F	inconclusive: 3.98 µM [activator, single point]
O=[N+]([O-])c1cccc(C2CC(c3ccccc3)=NN2c2ccccc2)c1 (stereo unspecified)	inconclusive: 20 µM [activator, single point]
COc1ccccc1C1C=C(c2ccc(Cl)cc2)Nc2nc(N3C(=O)CCC3=O)nn21 (stereo unspecified)	inconclusive: 20 µM [activator, single point]
O=C(CN1C(=O)NC2(CCCCCC2)C1=O)Nc1ccc(Br)cc1Br	inactive
CSc1ccccc1N=Cc1nc(-c2ccccc2)oc1O	inactive
CS(=O)(=O)N1CCC(Oc2ccccc2C(=O)N2CCNC(=O)C2)CC1	inactive
CCCCN1C(=O)c2ccc(C(=O)NCc3ccco3)cc2C1=O	inconclusive: 14.1 µM [activator, single point]
NC1=NC(c2cn(-c3ccccc3)nc2-c2cccs2)n2c(nc3ccccc32)N1 (stereo unspecified)	inactive

Taken from above.
O=[N+]([O-])c1cccc(C2CC(c3ccccc3)=NN2c2ccccc2)c1 (stereo unspecified) | Potency: inconclusive: 20 µM [activator, single point]
Cc1cccc(N2CCN(CC(=O)Nc3ccc(-n4cnnn4)cc3)CC2)c1C | Potency: inconclusive: 10 µM [activator, single point]
C=CCn1c(-c2ccc(OC)c(OC)c2)cs/c1=N\c1ccccn1 | Potency: inconclusive: 22.4 µM [activator, single point]
